The list shows a part of the results.

By UniProt entry, the sequences of proteins in these tests, tags left out.
UniProt Q0JBA9, entry or part of it: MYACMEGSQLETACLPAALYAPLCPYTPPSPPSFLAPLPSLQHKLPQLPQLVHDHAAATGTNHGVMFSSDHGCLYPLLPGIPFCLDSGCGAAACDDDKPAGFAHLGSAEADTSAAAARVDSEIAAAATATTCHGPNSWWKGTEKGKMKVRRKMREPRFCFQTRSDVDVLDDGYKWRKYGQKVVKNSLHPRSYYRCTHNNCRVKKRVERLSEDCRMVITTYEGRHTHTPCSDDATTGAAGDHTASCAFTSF

This assay has as its target OsWRKY34 (Oryza sativa, UniProt Q0JBA9 1-250). In words: protein-binding microarray (RPBM); PBS, 2% BSA, 51.3 ng/ul salmon testes DNA, 50 uM zinc acetate, 200 nM TF, 25 C, 1 h; high values mean tight binding. The settings on record: protein: recombinant; tags: N-terminal polyhistidine and DsRed monomer fusion (pET32a); label: CyDye5-dUTP incorporated in the synthesized complementary strand; 3' TTTTT single-stranded linker to array surface; dsDNA, one strand shown. The method in brief:
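The binding signal is fluorescence intensity per array feature (arbitrary units). Readings came from an Axon 4000B scanner after a washed, 2% BSA-blocked, double-stranded custom Agilent array had been incubated for 1 h at 25 °C with 200 nM protein and 50 µM zinc acetate. The protein was a Ni–NTA-purified transcription factor fused N-terminally to polyhistidine and DsRed, expressed in E. coli BL21-CodonPlus.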
Take “CAAACCTTCGCGCCGCCCATTTTTCCACCTCGTCGTCCTTCGGAGTCACCTAGTGCAG”: the binding signal is 13900 fluorescence intensity (a.u.). For “TCTGGAGTGGATCTTTGTAATAATTGGTTGTAGTTCTTTTCGGAGTCACCTAGTGCAG” the value was 11400 fluorescence intensity (a.u.). For “TATTTGACTTCCGGCTTTTGTTTCCTTGATACTTTACTCTCGGAGTCACCTAGTGCAG” the value was 9780 fluorescence intensity (a.u.); for “TCCGACGTGACGGGTTAGGTCAAAGCTTGTGTGGGGCTGGCGGAGTCACCTAGTGCAG”, 8340 fluorescence intensity (a.u.). The same measure for “TCTTTAGTTCCCAATACGACTATTTAGTTTCCCTATGCACCGGAGTCACCTAGTGCAG”: 8400 fluorescence intensity (a.u.); for “TGTTTGACCAATTTAGTGTAGTGTTTTGTTCTGGTCACAACGGAGTCACCTAGTGCAG”: 12800 fluorescence intensity (a.u.); for “CGCTCCGTACTCCATCTCATCCCCGGCCGCCACTGCCGACCGGAGTCACCTAGTGCAG”: 9140 fluorescence intensity (a.u.). For the sequence “TTAGGACCATGTCACTGCCGTCACGTTTTCCATCCATATCCGGAGTCACCTAGTGCAG”, the binding signal is 8130 fluorescence intensity (a.u.). The same measure for “CCCACATTTTTTCTTCTCACTTATATGTGGGTCCCATAATCGGAGTCACCTAGTGCAG”: 8640 fluorescence intensity (a.u.); for “TGACTGGGTTTTTCGAATATGTTATTTGCCTGATGCAAACCGGAGTCACCTAGTGCAG”: 8960 fluorescence intensity (a.u.).

Take “CGTGCTGCTCCGGCAATTCTCCCTCTACGTCGTTCTCGCGCGGAGTCACCTAGTGCAG”: the binding signal is 10200 fluorescence intensity (a.u.). On to “TGTATCGCTCCGTTTTCCGTGTTTAACTGTTCACGCTGCGCGGAGTCACCTAGTGCAG”, for which the binding signal is 9220 fluorescence intensity (a.u.).

Turning to “AATTTACGGTCAAACTTTGCCCAGCATCTTCATTTTTAGCCGGAGTCACCTAGTGCAG”, the binding signal is 8560 fluorescence intensity (a.u.). For “CCCATTTAAACGGTCATTGCTTAATTTTCTTGTAAGTTTTCGGAGTCACCTAGTGCAG” the value was 10600 fluorescence intensity (a.u.).

For the sequence “AGACTTCCACCTCACCCCTACCCCGACCGTGCACCAACCCCGGAGTCACCTAGTGCAG”, the binding signal was 10700 fluorescence intensity (a.u.). The same measure for “TAGCTAGAGTTGCAAGTTTGTTGGAGGATGTTTTTCTCTTCGGAGTCACCTAGTGCAG”: 8420 fluorescence intensity (a.u.); for “ATCTTTCTCACAAAGTTTCTTGGTTCTGTGTCCAAGCTTACGGAGTCACCTAGTGCAG”: 8850 fluorescence intensity (a.u.); for “AGGGAGAGAGAGAGAGAGAGAGAGAGAGGGGCAGCCACTCCGGAGTCACCTAGTGCAG”: 8160 fluorescence intensity (a.u.).

As to “CTGCGGCCATCGTCCTGTTCCTCTTGGCCTCGCGTGCAGTCGGAGTCACCTAGTGCAG”, the binding signal is 9130 fluorescence intensity (a.u.). The same measure for “ACGACAGATGCCGGTTTGTGATCATTTGTGTTGTTTAATTCGGAGTCACCTAGTGCAG”: 11200 fluorescence intensity (a.u.). Regarding “CCTGGTACACTACCTACCCTTTCTTTTGTTGTCCAATTCACGGAGTCACCTAGTGCAG”, the binding signal is 9990 fluorescence intensity (a.u.). For “TTTTAATCTCATTTTTTTTAACGGTTTTGCTATAATTTTTCGGAGTCACCTAGTGCAG” the value was 8850 fluorescence intensity (a.u.); for “ATTCGTCGTCGTCGTTGTTTTTTTCAACGTTGCAAATTGTCGGAGTCACCTAGTGCAG”, 8090 fluorescence intensity (a.u.).
